Source: PubChem BioAssay AID686937 (Drosophila RNAi Screening Center, 2013)
The screen tested about 23,000 reagents; below is a random part of those that have a named target and a result. 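Reduced-secretion tags in replicate 1 do not always agree with the z-scores; no criterion for assigning the tags was given.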 The numbers tell different reagents against one gene apart. A plus sign joins genes that one reagent is predicted to hit. The record does not give: the amount of reagent.

Assay: 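Genes whose loss weakens secretory pathway function in fly cells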 (primary screen)
System: Drosophila S2 cells expressing secreted horseradish peroxidase
Reagents: long dsRNA against Drosophila genes
Time to read-out: about 5.5 days (5 days dsRNA, then 12 h reporter induction)
Treatment: reporter expression induced after 5 days of dsRNA, read 12 h later; inducer not stated
Measurement: 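After 5 days of dsRNA and 12 h of reporter induction, medium peroxidase read by chemiluminescence and scored as per-plate z-score; higher values mean more reporter released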
Direction: z-score: higher = more reporter secreted into medium

no.	gene knocked down	reagent	z-score, replicate 1	z-score, replicate 2	z-score, replicate 3	z-score, replicate 4	phenotype, replicate 1
1	mnd (GeneID 39625)	1	0.08	0.13			
2	promL (GeneID 38372)	1	0.23	0.54			
3	Slh (GeneID 33434)	1	0.12	0.16			
4	Slh (GeneID 33434)	2	-3.78	-5.36			reduced secretion
5	KaiR1D (GeneID 42473)	1	0.25	0.23			
6	Agxt (GeneID 31587)	1	0.22	0.32			
7	Ac78C (GeneID 40333)	1	0.68	0.17			
8	Ac78C (GeneID 40333)	2	0.27	0.42			
9	Ac78C (GeneID 40333)	3	-0.18	-0.24			
10	pippin (GeneID 37770)	1	0.24	0.12			
11	Wnk (GeneID 40391)	1	-3.38	-2.34			reduced secretion
12	Cyp310a1 (GeneID 35115)	1	0.38	0.37			
13	Scamp (GeneID 32470)	1	0.65	0.61			
14	GABPI (GeneID 33516)	1	0.31	0.36			
15	kz (GeneID 31205)	1	-0.3	-0.92			
16	Ac13E (GeneID 32485)	1	0.61	0.56			
17	CG14450 (GeneID 40490)	1	0.49	0.3			
18	Sik2 (GeneID 31170)	1	0.33	0.43			
19	GstE6 (GeneID 37111)	1	0.3	0.06			
20	CG15708 (GeneID 36805)	1	0.54	0.39			
21	svr (GeneID 30998)	1	0.38	0.29			
22	svr (GeneID 30998)	2	0.32	0.1			
23	Dhc64C (GeneID 38580)	1	0.23	0.21			
24	scat (GeneID 47942)	1	0.29	0.36			
25	Cpr56F (GeneID 37299)	1	0.35	0.33			
26	CG42232 (GeneID 7354465)	1	0.04	0.03			
27	CG42232 (GeneID 7354465)	2	0.07	0.16			
28	Ns1 (GeneID 42060)	1	-0.58	-2.49			
29	Cipc (GeneID 43177)	1	0.28	0.61			
30	Cipc (GeneID 43177)	2	0.4	0.4			
31	S-Lap8 (GeneID 36844)	1	0.05	0.24	0.34	0.32	
32	S-Lap8 (GeneID 36844)	2	0.24	-0.72			
33	GlcAT-S (GeneID 34282)	1	0.22	0.35			
34	Phf5a (GeneID 33909)	1	-0.92	-0.32			
35	CG34348 (GeneID 32072)	1	0.1	0.3			
36	CG34348 (GeneID 32072)	2	0.18	0.29			
37	18w (GeneID 37277)	1	0.38	0.3			
38	nac (GeneID 40981)	1	-1.45	-0.22			
39	alpha-Est2 (GeneID 40908)	1	0.35	0.64			
40	TTLL12 (GeneID 35732)	1	0.41	0.38			
41	rst (GeneID 31290)	1	0.21	-0.31			
42	rst (GeneID 31290)	2	0.36	0.42			
43	CG6567 + CG4565	1	0.16	0.65			
44	CG7745 (GeneID 36210)	1	-0.38	-0.01			
45	CG33469 (GeneID 2768832)	1	-0.25	-0.29			
46	CG10336 (GeneID 35122)	1	0.42	0.28			
47	CG4218 (GeneID 34848)	1	-0.54	0.04			
48	CG3457 (GeneID 31196)	1	0.51	0.48			
49	CG13707 (GeneID 38583)	1	0.23	0.27			
50	CG44838 (GeneID 39099)	1	-2.03	-0.56			reduced secretion
51	CG44838 (GeneID 39099)	2	0.32	0.16			
52	CG9010 (GeneID 36904)	1	0.51	0.49			
53	Prim1 (GeneID 38942)	1	0.1	0.18			
54	CG12824 (GeneID 35727)	1	0.24	0.26			
55	HLH4C (GeneID 31397)	1	0.33	0.24	0.3	0.3	
56	HLH4C (GeneID 31397)	2	1.48	1.03			

8 entries from above, arranged by “z-score, replicate 1”, low to high:
gene knocked down	reagent	z-score, replicate 1	z-score, replicate 2	z-score, replicate 3	z-score, replicate 4	phenotype, replicate 1
nac (GeneID 40981)	1	-1.45	-0.22			
CG6567 + CG4565	1	0.16	0.65			
CG34348 (GeneID 32072)	2	0.18	0.29			
rst (GeneID 31290)	1	0.21	-0.31			
alpha-Est2 (GeneID 40908)	1	0.35	0.64			
rst (GeneID 31290)	2	0.36	0.42			
18w (GeneID 37277)	1	0.38	0.3			
TTLL12 (GeneID 35732)	1	0.41	0.38			
